# Measurements published in patent publication US20110213082 (published 2011).
# Test: general procedure: hybrid (solid and solution phase) peptide synthesis; 2-CTC resin; TBTU or HBTU / 6-Cl-HOBT / DIEA (solid phase); HBTU/HOBt/DIEA (solution phase)
# Conditions: purification step, acetate
substance,measurement,setting,value
"(Aib^8, X^17-18, Aib^35) GLP-1(7-36)",final HPLC purity,"HPLC (area normalised, AN)",98+%
same,step yield,run 1,90.42% recovery
same,step yield,run 2,92% recovery
same,step yield,run 3,74.6% recovery
same,step yield,contained/contained,˜60%
